Assay results: article PMC12040169 (PLOS Biology, 2025)
This is one part of the list.

Test system: T1, CTL2-GFP (C. trachomatis L2/434/Bu, GFP-expressing)
T1 construct: L2/434/Bu, GFP-expressing
Set-up: species or system HeLa; Intracellular C. trachomatis growth in HeLa cells, bulk GFP fluorescence relative to DMSO
Conditions: bulk GFP, single well; 28.5 h, 10 µM; inhibitor

SMILES	% of control remaining [%]
COc1ccc([C@@]23CC[C@@H](NS(=O)(=O)c4ccc5ccccc5c4)C[C@@H]2N(C)CC3)cc1OC [CBK056848T]	123.14
COc1ccccc1NC(=O)N1C[C@@H]2C[C@H](C1)c1c(-c3ccccc3F)ccc(=O)n1C2 [CBK289192]	112.203
Cc1nc(C)c(C(=O)N2C3CCC2c2cc(Cl)cnc2C3)s1 (centres unmarked) [CBK284953]	103.379
Cc1cc(C(=O)NCCC(=O)O)c2ccccc2n1 [CBK286573]	118.013
Cc1ncccc1COC(=O)N1CCC(C(F)(F)F)CC1 [CBK200154]	101.379
O=C(NCc1ccccc1)c1ccc2nc[nH]c2c1 [CBK143739]	118.164
COc1ccnc(N2CCC(Oc3cccnc3N(C)C)C2)n1 (centres unmarked) [CBK304699]	134.435
Cc1ccc(NC(=O)Cn2cnc3c(cnn3-c3ccc(C)cc3)c2=O)cc1 [CBK287534]	122.341
Cn1nc(C2CCCC2)cc1[C@H]1CN2CC[C@H]1C[C@@H]2CNS(C)(=O)=O [CBK288742]	98.7448
CCn1cc(CN(C)Cc2nccs2)c2cc(C(=O)O)ncc21 [CBK306512]	137.16
Cc1ncccc1COC(=O)N1c2ccccc2CCC1C (centres unmarked) [CBK200204]	56.3923
N#Cc1ccc(-c2cncc(NC3CCC(O)CC3)n2)cc1 (centres unmarked) [CBK166007T]	116.866
Cn1ccnc1Sc1nc2ccccc2nc1C(F)(F)F [CBK093778]	99.6999
N#C/C(=C/c1cc(Cl)c(OCc2ccc([N+](=O)[O-])cc2)c(Cl)c1)c1ccc(C(=O)O)cc1 [CBK269098]	137.477
CCc1onc(-c2ccccc2)c1C(=O)NCCO [CBK160434]	102.108
Nc1nn2c(c1Cc1c(Cl)cccc1Cl)OC(=O)CCC2=O [CBK093439]	96.4281
COc1ccc(C(CC(=O)O)c2ccc3c(c2)OCCO3)cc1OC (centres unmarked) [CBK287121]	134.794
CC(=O)N1CCCc2cc(NC(=O)NCCc3cnn(C)c3)ccc21 [CBK304937]	118.656
O=C(O)CNS(=O)(=O)c1ccc(-c2ccccc2)cc1 [CBK034457]	130.039
CC(C)(C)C(=O)/N=c1/[nH]nc(-c2cccnc2)s1 [CBK288203]	163.009
Cc1ccc(-c2cc(C(=O)N(C)Cc3cccn3C)[nH]n2)o1 [CBK283324]	85.2979
Cc1ccc(-c2n[nH]c(=S)n2CCC(=O)N(C)Cc2ccc(N3CCCCC3)cc2)cc1 [CBK297904]	33.2434
COc1cc(-c2cnc(N)c(NCc3ccncc3)n2)cc(OC)c1OC [CBK063646]	162.947
O=C(O)c1nsnc1C(=O)O [CBK278311K]	82.0814
CN(C)c1nc(Cl)c(C=Cc2cc(C(=O)O)c3ccccc3n2)s1 [CBK298272]	129.601
CC(NC(=O)c1ccccc1)C(=O)OCn1nnc2ccccc2c1=O (centres unmarked) [CBK297001]	158.635
O=C(Cc1ccccc1)N1CCN(Cc2ccc3ccccc3c2)CC1 [CBK263037]	89.7941

SMILES	% of control remaining [%]
CN1CCC2(CCC1=O)CC(NC(=O)C1CC1)c1ccccc1O2 (centres unmarked) [CBK284455]	131.206
CSc1ccccc1CNC(=O)Cn1nnc(-c2ccc(CN3CCC(C)CC3)cc2)n1 [CBK144573C]	106.129
COc1cccc(CC(=O)Nc2ncccc2OCCCC#N)c1 [CBK304961]	116.509
O=C(CSc1cccs1)Nc1nccs1 [CBK019601]	155.335
O=C(NCc1cccc(C(F)(F)F)c1)N1CCN(c2ccc(F)cc2)CC1 [CBK156390]	100
O=C(Nc1ccc(S(=O)(=O)N2CCCCC2)cc1)c1ccc(NS(=O)(=O)c2ccccc2)cc1 [CBK268348]	114.973
O=C(CC1(O)C(=O)N(Cc2ccccc2Cl)c2ccccc21)c1cc2ccccc2oc1=O (centres unmarked) [CBK265255]	114.511
O=c1[nH]c2ccc(Cl)cc2c(-c2ccccc2)c1N1CCN(Cc2ccc3c(c2)OCO3)CC1 [CBK265776]	106.03
C=CCN(CC=C)CCOc1c(C)cc(C)cc1Br [CBK266070G]	111.071
O=C(NC1CCCC1)c1cc(=O)n(Cc2ccc(Cl)cc2)c2ccccc12 [CBK294464]	166.395
CN(C)Cc1cc(-c2ccccc2F)nn1CCNC(=O)C1CCC1 [CBK283471]	158.906
CC(=O)Nc1cc(C(=O)NCc2ccc(F)cc2)ccc1Sc1ccc(Cl)cc1 [CBK294468]	131.885
O=C(c1ccc(-n2ccnc2)c(-n2cccc2)c1)N1CCSCC1 [CBK285364]	127.199
O=C(CCCC1CCNCC1)Nc1nnc(C2CC2)s1 [CBK169224]	121.507
COc1cc([N+](=O)[O-])ccc1NC(=S)NNS(=O)(=O)c1cc(Cl)c(Cl)cc1Cl [CBK266863]	183.225
CCN1CCCC1CNC(=O)c1cc(Br)cnc1N(C)S(C)(=O)=O (centres unmarked) [CBK076520]	98.7392
N#Cc1c2c(c(Nc3ccc(C4CCCCC4)cc3)n3c1nc1ccccc13)CCC2 [CBK263122]	108.092
Cc1cc(C)n(CC(=O)Nc2nc(CN3CCC(C)CC3)cs2)n1 [CBK305592]	105.744
O=S1(=O)CCN(Cc2ccc3c(c2)OCO3)CC1 [CBK074780]	109.98
OCc1ccccc1-c1cncc(Nc2cccc(Cl)c2)n1 [CBK065400]	104.702
CC(C)(C)O/N=C/c1cccnc1 [CBK015761C]	105.303
O=C(O)CNC(=O)c1ccc(S(=O)(=O)N2CCCC2)cc1 [CBK267434]	122.823
N#CCCN(C(=O)NCCOc1ccccc1)C1CCCCC1 [CBK156374]	175.275
CCc1nc2ccc(NC(=O)c3csc(C(C)=O)c3)cc2[nH]1 [CBK282538]	83.0614
O=C(CNc1ccc2ccccc2c1)N/N=C/c1cc2c(cc1[N+](=O)[O-])OCO2 [CBK261126]	89.8477
COc1nc2ccccc2nc1CCC(=O)O [CBK269356]	146.238
CC(=O)Nc1cccc(-c2nc(-c3ccc(C#N)cc3)cnc2N)c1 [CBK113659]	108.145

SMILES	% of control remaining [%]
O=C(Nc1ncnc2c1ccn2C1CC(O)C(CO)O1)c1ccccc1 (centres unmarked) [CBK201289]	132.901
COc1cc(C2C(C(=O)c3cccs3)=C(O)C(=O)N2Cc2cccnc2)ccc1O (centres unmarked) [CBK264605]	97.3337
Cc1sc2ncn(CC(=O)Nc3cccnc3)c(=O)c2c1C [CBK306057]	114.977
COc1ccc(S(=O)(=O)NCCCN2CCOCC2)c(Cl)c1Cl [CBK269792]	127.966
N#CC(C(=O)CN1CCCC1)c1ccccc1 (centres unmarked) [CBK269333]	158.743
O=C(O)c1ccc2c(c1)C1C=CCC1C(c1cccc([N+](=O)[O-])c1)N2 (centres unmarked) [CBK287008]	133.292
CSCCC(NC(=O)c1ccccc1NC(=O)c1ccc(C)cc1)C(=O)O (centres unmarked) [CBK296067]	140.208
CCCn1ccnc1SCC(=O)Nc1ccc(N(C)C)cc1 [CBK304996]	108.629
Cn1c2c(c3ccccc31)C(=O)NCC2 [CBK003517]	164.833
Cc1cccc(N(CC(=O)Nc2cccnc2)S(=O)(=O)c2ccc(Cl)cc2)c1 [CBK268676]	116.886
CCN(CC)C(=O)CN1CCC(c2ccc(F)cc2)CC1 [CBK285475]	115.826
Cc1noc(C)c1S(=O)(=O)Nc1cccc(C(=O)N2CCN(C)CC2)c1 [CBK038972]	107.832
Cc1cc(Cl)c(OCCN2CCCCCC2)c(Br)c1 [CBK266049G]	109.391
O=C(Cn1cc(C(=S)N2CCOCC2)c2ccccc21)Nc1ccc2c(c1)OCO2 [CBK266703]	172.34
O=C(C1CCCC1)N1C[C@@H]2CCCCN(CC3CC3)[C@@H]2C1 [CBK285493]	122.521
CN1CCC(CNC(=O)C2(c3ccccc3F)CC2)(N(C)C)CC1 [CBK282604]	115.864
O=C(c1nccs1)C1CCN(C(=O)Cc2ccccc2F)CC1 [CBK284161]	123.846
CC(C)(C)NC(=O)c1ccc(-n2ccnc2)c(-n2cccc2)c1 [CBK284811]	126.975
Cc1ccc(NC(=O)c2ccc(-c3cccc([N+](=O)[O-])c3)o2)cc1-c1nc2ncccc2o1 [CBK262947]	121.399
O=C(O)CCc1ccc(S(=O)(=O)N2CCOCC2)cc1 [CBK287224]	113.288
CC(C)(C)c1ccc(-c2nc(N)cc3ccccc23)cc1 [CBK085720]	57.4339
CCCC(=O)c1ccc(S(=O)(=O)N2CCCN(Cc3ccc(C#N)cc3)CC2)cc1 [CBK062895]	67.7976
O=C(C1CCCC1)N1CCCc2cc(C(O)CN3CCCC3)ccc21 (centres unmarked) [CBK282145]	135.753
CN(C)CCOCCS(=O)(=O)c1ccc(N2CCC(c3ccc(Cl)cc3)=N2)cc1 [CBK018115]	94.4989
Cc1cc(C)nc(Nc2ncc(O)n2-c2ccccc2C)n1 [CBK263024]	100
COc1cccc(/C=C2/SC(=S)NC2=O)c1OCCCOc1ccccc1C [CBK264442]	129.826

Quoted at random: 2 compounds from above.
SMILES	% of control remaining [%]
COc1ccnc(N2CCC(Oc3cccnc3N(C)C)C2)n1 (centres unmarked) [CBK304699]	134.435
COc1cccc(/C=C2/SC(=S)NC2=O)c1OCCCOc1ccccc1C [CBK264442]	129.826
